This note sets out measurements from publication PMC7891773.

In experiment [1] the target is T1, GST-mFOG1 (aa 1-45) (mouse) (UniProt O35615).
T1 sequence: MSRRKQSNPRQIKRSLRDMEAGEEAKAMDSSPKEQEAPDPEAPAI
The experiment can be described thus: pull-down; GST-mFOG1(1-45) on Glutathione Sepharose with S2 cell nuclear extract, without or with competing peptides; Western blot; the pair that is blocked; only the target purified.

Experiment [2] concerns the target T1, GST-mFOG1 (aa 1-45) (mouse). The experiment can be described thus: pull-down; 10-20 μg GST fusion on Glutathione Sepharose with 1 mg S2 cell nuclear extract or Drosophila embryo nuclear extract (TRAX); overnight at 4°C; 25 mM Hepes/KOH pH 7.6, 150 mM KCl, 0.1% NP-40; Western blot; only the target purified.

No constants are given. Whether binding was seen depends on the method and setting. Binding seen in cells or lysates may run through a third protein. For part of these data: A result given as binding can be weak or reduced; the word gives no strength. Tags and fused reporters may be left off the sequences shown.

For the substance dp66, the binding entry in experiment [1] is listed as “binds”.

With dMEP-1, in experiment [2], the binding result is given as “no binding”.

For the substance dLSD1 (enzyme), in experiment [2], the binding result is “no binding”.
